A word on the AC50: it is the midpoint of the concentration-response curve, whichever way the signal moves.

We go through 64 compounds from PubChem BioAssay AID493014 (National Center for Advancing Translational Sciences (NCATS), 2011).

The assay is described as follows: qHTS Assay to Find Inhibitors of Chronic Active B-Cell Receptor Signaling. Conditions: ABC-DLBCL IkBa-CBG/CBR reporter, luminescence ratio (green luciferase fused to IkBa over red control in TMD8 lymphoma cells), 4 h. In outline: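 Compounds up to 46 uM were incubated four hours with TMD8 cells whose green CBG68 luciferase is fused to IkappaBalpha; red CBR luminescence normalised the signal, and concentration-effect curves were fitted to fusion, red and ratio data.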

Setting [1] is: measured here: CBR red luminescence, cell number.
Setting [2] is: measured here: IkBa-CBG green luminescence.

Each structure is given as a SMILES string. The list shows a part of the results. Shown are side measurements of this screen, not its main read-out; they come without a call. Compounds called inactive in the main read-out are mostly missing here. Words in brackets tell the shape of the fitted curve; partial curves, single points and poor fits give uncertain potencies.

With `CCc1ccc2nc(SCC(=O)NCC3CCCO3)c(C#N)cc2c1` (stereo not drawn), under setting [1], the AC50 is 35.5 µM [rising, single point]. The same measure, in the same setting: then `COc1ccccc1NC(=O)C(CCS(C)(=O)=O)N1C(=O)c2ccccc2C1=O` (stereo not drawn), with 13 µM [rising, partial curve, poor fit]. As to `CCC1=Nc2cc(C(=O)NCc3cccnc3)ccc2Sc2ccc(C)cc21`, the AC50 under setting [1] is 12.6 µM [rising, partial curve, poor fit] and the AC50 under setting [2] is 11.2 µM [falling, partial curve]. As for `COc1cc2oc(=O)c(Br)c(C)c2c(OC)c1OC`, the AC50 under setting [1] was 31.6 µM [rising, single point]. On the same count and under the same terms, then `Cc1cc(/C=N/Nc2ncnc(N)c2[N+](=O)[O-])c(C)n1-c1ccccc1`, with 12.6 µM [falling, single point]; and `Cc1ccc(SC(C)C(=O)O/N=C(\N)c2ccncc2)cc1` (stereo not drawn), with 22.4 µM [rising, single point].

As to `CC(C)CCn1c(SCCc2ccccc2)nc2c1c(=O)[nH]c(=O)n2C`, the half-maximal activity concentration (AC50) under setting [1] is 29.1 µM [falling, single point]. Turning to `COc1ccc(C(=O)NCc2cc(C)nc3ccccc23)cc1`, the AC50 is 35.5 µM [rising, single point] under setting [1] and 22.4 µM [falling, single point] under setting [2].

Take `COC(=O)c1cnn2c(C)c(Cc3c(C)cc(C)cc3C)c(C)nc12`: the AC50 under setting [1] is 3.98 µM [rising, full curve, poor fit].

In the case of `C/C(=N\NC(=O)c1cc(-c2ccncc2)nc2ccccc12)c1ccc(N2CCOCC2)cc1`, the AC50 is, setting by setting: under setting [1], 35.5 µM [rising, single point]; under setting [2], 22.4 µM [falling, single point]. In the case of `Cc1c(C(=O)Nc2ccccc2)sc2nc3n(c(=O)c12)CCCCC3`, under setting [1], the AC50 was 35.5 µM [falling, single point].

In the case of `COc1ccc(S(=O)(=O)Nc2c(NC3CCCCC3)c3ccccc3oc2=O)cc1`, the AC50 under setting [1] is 5.01 µM [falling, partial curve].

As to `COc1ccc(-c2nc(-c3ccncc3)no2)cc1`, the AC50 under setting [1] was 0.447 µM [rising, full curve, poor fit]. With `CCOc1ccc(Br)cc1C1C(C(=O)OC)=C(N)Oc2cc(N(C)C)ccc21` (stereo not drawn), the AC50 under setting [2] was 18.4 µM [falling, partial curve, poor fit]. Turning to `Cc1nc2ccccc2c2nc3ccccc3n12`, the AC50 under setting [1] was 0.00731 µM [falling, full curve, poor fit]. Turning to `O=C(CNC(=O)c1cccs1)NC1=NCCS1`, the concentration at half-maximal activity (AC50) under setting [1] was 29.1 µM [falling, single point].

For `O=C1N(CCCCN2C(=O)C3(OCCO3)c3ccccc32)c2ccccc2C12OCCO2`, the AC50 under setting [1] was 8.2 µM [rising, partial curve]. On the same count and under the same terms, as for `O=C1NC(=Nc2ccc(F)cc2)SC1Cc1ccc(F)cc1` (stereo not drawn), the figure is 10 µM [falling, partial curve]; as for `CCc1ccc2nc(N3C(=O)C(O)=C(C(=O)c4ccco4)C3c3cccs3)sc2c1` (stereo not drawn), 14.6 µM [falling, partial curve, poor fit]; as for `CCOc1ccc(NC(=O)c2cc(C3CC3)nc3c2cnn3C(C)C)cc1OC`, 1.16 µM [rising, full curve]. Same read-out and setting: then `Brc1ccc(-c2cnc(-c3cccs3)o2)cc1`, with 0.562 µM [rising, full curve]; and `Cc1nc2cc(-c3cccc(F)c3)nn2c(C)c1CCC(=O)NC(C)CCc1ccco1` (stereo not drawn), with 0.326 µM [falling, full curve].

With `COC(=O)COc1ccc(/C=N/NC(=O)c2ccc(N(Cc3ccccc3)S(C)(=O)=O)cc2)cc1`, under setting [1], the AC50 is 29.1 µM [falling, single point]. For `O=C(NC(=S)N(CCO)Cc1ccccc1)c1cc(Br)ccc1Cl`, the AC50 is, setting by setting: under setting [1], 22.4 µM [rising, single point]; under setting [2], 28.2 µM [falling, single point]. For the compound `CC(=O)c1cc(-c2ccccc2)[nH]c1N1CCCC1`, under setting [1], the AC50 was 25.9 µM [falling, single point]. The same measure, in the same setting: then `O=C(c1ccc(Br)cc1)N1CCN(S(=O)(=O)c2ccccc2)CC1`, with 11.6 µM [falling, partial curve, poor fit]. `CC(=O)Nc1ccc(NS(=O)(=O)c2c(Cl)cccc2Cl)cc1`: the AC50 under setting [1] is 0.316 µM [rising, full curve, poor fit]. Take `CCCCCCCCCn1ccc(=N)cc1`: the AC50 under setting [1] is 11.2 µM [falling, partial curve]. On the same count and under the same terms, as for `CC(OC(=O)Cn1cc(C(F)(F)F)ccc1=O)C(=O)NC(C)c1ccc(Cl)cc1Cl` (stereo not drawn), the figure is 2.31 µM [falling, single point]. Still for that read-out and setting: then `O=C(CCN1C(=O)/C(=C/c2ccc(Cl)cc2)SC1=S)NC1C=CS(=O)(=O)C1` (stereo not drawn), with 8.91 µM [falling, partial curve]; and `COc1ccc(F)cc1C(=O)C1CCCN(C(=O)CSc2ccccn2)C1` (stereo not drawn), with 5.62 µM [rising, single point]; and `O=C(NC1CCc2ccccc21)c1cc(COc2ccc(F)cc2Cl)on1` (stereo not drawn), with 14.1 µM [falling, single point]. For the compound `Cn1cc(CN2CCC(CO)CC2)c(-c2ccc(Oc3ccccc3)cc2)n1`, the AC50 under setting [1] was 5.62 µM [rising, full curve]. Same read-out and setting: as for `O=C(Cc1ccccc1)NCC(=O)N/N=C/c1ccc([N+](=O)[O-])s1`, the figure is 35.5 µM [falling, single point]. The same measure, in the same setting: as for `COc1ccccc1OC(C)C(=O)Nc1nc(-c2ccc(S(=O)(=O)N3CCOCC3)cc2)cs1` (stereo not drawn), the figure is 5.62 µM [rising, full curve]; as for `CN(Cc1ccccc1)C(=O)c1[nH]cnc1C(=O)NCc1ccccc1`, 16.4 µM [falling, single point]; as for `COc1ccccc1NS(=O)(=O)c1cc(NC(=O)c2cc3ccccc3oc2=O)ccc1C`, 0.082 µM [falling, full curve, poor fit]. Still for that read-out and setting: then `O=C(Cc1csc(NC(=O)c2ccc(F)cc2)n1)NO`, with 35.5 µM [falling, single point]. For the compound `COc1cccc(C2=CC(c3ccccc3F)n3c(nc4ccccc43)N2)c1` (stereo not drawn), the AC50 under setting [1] was 12.6 µM [falling, partial curve]. On the same count and under the same terms, as for `O=C(c1cc(COc2ccc(F)cc2Cl)on1)N1CCc2ccccc2C1`, the figure is 14.1 µM [rising, partial curve]; as for `COc1ccc(-c2nnc(-c3ccc(F)cc3)o2)cc1`, 0.562 µM [rising, full curve, poor fit]. Still for that read-out and setting: as for `Cc1onc(C(=O)/C=C/N(C)C)c1C(=O)Nc1nccs1`, the figure is 6.31 µM [falling, partial curve, poor fit]; as for `COc1ccc2oc(C(=O)Nc3nc4ccccc4[nH]3)c(C)c2c1`, 1.26 µM [falling, full curve, poor fit]. Regarding `CCc1ccc(-c2cn(-c3nc(C)cc(C)n3)c(=N)o2)cc1`, the AC50 under setting [1] is 14.6 µM [rising, partial curve]. In the case of `Clc1ccc(CSc2nnc(-c3ccccn3)n2Cc2ccco2)c(Cl)c1`, under setting [1], the AC50 was 1.78 µM [falling, partial curve, poor fit]. Turning to `Cc1cc(N2CCN(c3ccc(C(F)(F)F)cc3[N+](=O)[O-])CC2)c2ccccc2n1`, the AC50 under setting [1] was 14.1 µM [falling, single point]. On the same count and under the same terms, as for `Cc1ccc(S(=O)(=O)NCCc2csc3nc(-c4ccccc4C)nn23)cc1`, the figure is 22.4 µM [falling, single point]; as for `COc1ccc(Nc2oc(-c3ccccc3)nc2C#N)cc1`, 35.5 µM [rising, single point]. The same measure, in the same setting: as for `Cn1cc([N+](=O)[O-])c(C(=O)Nc2ccn(Cc3c(F)c(F)cc(F)c3F)n2)n1`, the figure is 1.84 µM [falling, partial curve, poor fit]. On to `O=S(=O)(c1cccs1)N1CCN(CC(O)COc2cc(Cl)ccc2Cl)CC1` (stereo not drawn), for which, under setting [1], the AC50 is 35.5 µM [falling, single point].

As to `COc1ccc(OC)c(NC(=S)NCc2cccs2)c1`, the AC50 under setting [1] is 1.64 µM [rising, full curve, poor fit]. On the same count and under the same terms, then `CCOc1ccc(CSC2=NCCN2)cc1Cl`, with 15.8 µM [falling, single point]; and `Cc1cccn2c(=O)c3cc(S(=O)(=O)c4ccccc4)c(=N)n(Cc4ccco4)c3nc12`, with 14.1 µM [falling, partial curve]; and `CSc1nc(O)c(C(c2cccc([N+](=O)[O-])c2)c2c(O)nc(SC)[nH]c2=O)c(=O)[nH]1`, with 0.0891 µM [rising, full curve, poor fit]. Still for that read-out and setting: as for `COc1ccc(CNCCC2(C(C)C)CCOC(C)(C)C2)cc1` (stereo not drawn), the figure is 3.16 µM [falling, full curve, poor fit]. Same read-out and setting: then `CNc1nc(-c2ccc(Cl)cc2)cs1`, with 1.26 µM [rising, partial curve]; and `CCc1c(C)nc2cc(-c3ccc(OC)c(OC)c3)nn2c1N1CCC(C)CC1`, with 3.98 µM [rising, full curve, poor fit]. Turning to `CC1=C(C)CC2C(=O)N(Cc3ccccc3)C(=O)C2C1` (stereo not drawn), the AC50 under setting [1] is 1.84 µM [rising, partial curve].

In the case of `Cn1c(SCC(=O)c2ccccc2)nnc1-c1ccccn1`, under setting [1], the AC50 was 35.5 µM [falling, single point]. The same measure, in the same setting: as for `COc1ccc(-n2nc3c(c2NC(=O)COc2ccccc2)CS(=O)C3)cc1` (stereo not drawn), the figure is 31.6 µM [rising, single point]; as for `Fc1ccc(N/N=C/C=C/c2ccccc2)c(F)c1`, 0.206 µM [rising, full curve, poor fit]; as for `CCC1(C(=O)c2ccccc2)C(c2cccc([N+](=O)[O-])c2)C1(C(=O)OC)C(=O)OC` (stereo not drawn), 9.2 µM [falling, partial curve]. Take `CCCC(=O)Nc1nnc(Cc2ccccc2)s1`: the AC50 under setting [1] is 20 µM [rising, partial curve, poor fit]. Still for that read-out and setting: as for `O=C(c1ccccc1F)N(Cc1ccc2c(c1)OCO2)Cc1cc2cc3c(cc2n2nnnc12)OCO3`, the figure is 35.5 µM [rising, single point].
